Laboratory results taken from patent US10801035B2, “Plants having increased tolerance to herbicides” (BASF SE, priority 2011, dated 2020).

Protein sequences, listed by entry. Tags and fused reporters are not part of them.
UniProt P93836, whole entry M335H: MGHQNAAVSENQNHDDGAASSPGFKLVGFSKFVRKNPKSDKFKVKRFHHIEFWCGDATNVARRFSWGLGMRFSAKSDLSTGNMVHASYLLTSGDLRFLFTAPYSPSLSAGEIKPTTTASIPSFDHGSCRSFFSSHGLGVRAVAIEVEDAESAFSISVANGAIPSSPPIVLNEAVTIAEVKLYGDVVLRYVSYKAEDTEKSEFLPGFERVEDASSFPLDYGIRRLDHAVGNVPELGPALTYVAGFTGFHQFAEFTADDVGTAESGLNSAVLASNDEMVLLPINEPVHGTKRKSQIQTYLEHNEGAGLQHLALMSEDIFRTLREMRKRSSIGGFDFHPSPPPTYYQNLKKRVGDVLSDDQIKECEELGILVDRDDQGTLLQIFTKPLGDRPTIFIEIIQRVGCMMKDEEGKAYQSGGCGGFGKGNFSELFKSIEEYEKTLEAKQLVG

Tests used:
Picrophilus HPPD = assay: HPPD activity assay, Picrophilus HPPD; conditions: normalized on Hordeum HPPD
Method: (§1) HPPD produces homogentisic acid and CO2 from 4-hydroxyphenylpyruvate (4-HPP) and O2. The activity assay for HPPD is based on the analysis of homogentisic acid by reversed phase HPLC.
(§2) The assay mixture can contain 150 mM potassium phosphate buffer pH 7.0, 50 mM L-ascorbic acid, 1 μM FeSO4 and 7 μg of purified enzyme in a total volume of 1 ml. Inhibitors are dissolved in DMSO (dimethylsulfoxide) to a concentration of 20 mM or 0.5 mM, respectively. From this stock solution serial five-fold dilutions are prepared in DMSO, which are used in the assay. The respective inhibitor solution accounts for 1% of the assay volume. […]
Activities are normalized by setting the uninhibited enzyme activity to 100%. […] values are calculated using non-linear regression. […]
(§3) Inhibitors are dissolved in DMSO (dimethylsulfoxide) to a concentration of 0.5 mM. […] IC50 values are calculated using non-linear regression.
Using methods which are described in the above examples or well known in the art, purified, recombinant wildtype HPPD enzymes are characterized with respect to their kinetic properties and sensitivity towards HPPD inhibiting herbicides. Apparent michaelis constants (Km) and maximal reaction velocities (Vmax) are calculated by non-linear regression with the software GraphPad Prism 5 (GraphPad Software, La Jolla, USA) using a substrate inhibition model. […]

[1] = molecular target: Arabidopsis HPPD variant M335H (Arabidopsis thaliana, UniProt P93836, M335H); assay: HPPD activity assay, Arabidopsis HPPD mutant M335H; type: biochemical; conditions: normalized on wildtype
Method: as §1
as §2, with “volume. Thus, final inhibitor concentrations range from 200 μM to 2.5 nM or from 5 μM to 63 pM, respectively. After a preincubation of 30 min the reaction is started by adding 4-HPP to a final concentration of 0.1 mM.” for “volume.”
as §3
Purified, mutant HPPD enzymes are obtained by the methods described above. […] Apparent michaelis constants (Km) and maximal reaction velocities (Vmax) are calculated by non-linear regression with the software GraphPad Prism 5 (GraphPad Software, La Jolla, USA) using a substrate inhibition model. […] Weighted means (by standard error) of Km and […] values are calculated from at least three independent experiments. […]

| SMILES | Normalized tolerance index (TI) (Picrophilus HPPD) | Normalized tolerance index (TI) [1] |
| --- | --- | --- |
| CC1=NOC(c2c(Cl)ccc(C3=C(O)c4ncccc4N(CC(F)F)S3(=O)=O)c2Cl)C1 (stereo not drawn) [Inhibitor 1, 3-[2,4-dichloro-3-(3-methyl-4,5-dihydroisoxazol-5-yl)phenyl]-1-(2,2-difluoroethyl)-2,2-dioxo-pyrido[3,2-c]thiazin-4-ol] | much greater and 289.9 | increase of tolerance index and 2.9 |
| O=S1(=O)C(c2c(Cl)cc(Cl)nc2Cl)=C(O)c2ncccc2N1CC(F)F [Inhibitor 2, 1-(2,2-difluoroethyl)-2,2-dioxo-3-(2,4,6-trichloro-3-pyridyl)pyrido[3,2-c]thiazin-4-ol] | much greater and 222.8 |  |

The source holds more than one record for some entries. The list is limited to them. The source may hold further records. The values listed for one entry differ, and nothing given here explains why; dose, time, organism, isomer or construct need not be as stated for each record.
